Primary screen of a compound library

Mtb cholesterol medium: 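Growth of Mycobacterium tuberculosis over 4 days (cholesterol / DPPC medium with tyloxapol); the read-out is not stated. Concentration: 50 µM. Direction is inferred from retests: higher values go with more growth inhibition. Size under these conditions: about 69,000 compounds, about 370 of them at 50% or above in at least one test.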
Mtb glucose medium: 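Whole-cell growth test on Mycobacterium tuberculosis, read after 3 days in glucose-containing 7H9 medium; the read-out is not stated. Compounds at 50 µM. The record gives no direction; compounds that gave an IC50 in retests scored well above the rest, so higher reads as more growth inhibition. About 69,000 compounds were tested under these conditions; 1.1% (about 760) showed 50% or more at least once.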

Each number is a percent effect as filed. The controls that fix the scale are not given in the record; negative values are as filed. The compounds are a random part of those screened. Two or more numbers in one place are separate tests of the same structure; such repeats can differ widely.

Result for CC(C)(C)c1nnc(CN2CCn3c(nnc3C3CC3)C2)o1 was Mtb cholesterol medium: 3.723%; Mtb glucose medium: -23.08%. With CC(C)NC(=O)N[C@H]1C[C@@H](Cc2cc(CN3CCOCC3)on2)C1(C)C the screen gave Mtb cholesterol medium: 7.743%; Mtb glucose medium: -1.194% and -10.42%. For c1cc(-c2noc(-c3cc(C4CC4)on3)n2)cc(N2CCCCC2)n1 the result was Mtb cholesterol medium: 18.3%; Mtb glucose medium: 28.08%. With Cc1cccc(CN2CCc3ncnc(N4CCCC4)c3CC2)n1.O=C(O)C(F)(F)F the screen gave Mtb cholesterol medium: 6.147%; Mtb glucose medium: -6.231%. For CCOc1ccccc1N(C)C(=O)c1ccc(Cl)cn1 the result was Mtb cholesterol medium: -19.83%; Mtb glucose medium: -16.66%. CC(Cc1cccc(F)c1)C(=O)NS(=O)(=O)c1ccc(F)cc1 (stereo not given) read Mtb cholesterol medium: -31.32%; Mtb glucose medium: -8.825% and 22.63%. With O=c1cc(Cn2ccnc2)nc2n1CCCN(S(=O)(=O)C1CC1)C2 the screen gave Mtb cholesterol medium: 1.524%; Mtb glucose medium: 13.54%. For c1csc(-c2noc(CC3CCCO3)n2)c1 (stereo not given) the result was Mtb cholesterol medium: 35.04%; Mtb glucose medium: 22.15%.

Result for Cc1nc(Nc2ncccn2)cc(C2CCCN2Cc2ncc[nH]2)n1 (stereo not given) was Mtb cholesterol medium: 8.469%; Mtb glucose medium: 14.87%. COc1cc(CNCCc2cnn(C)c2)cc2c1OCO2 read Mtb cholesterol medium: 18.28%; Mtb glucose medium: 7.376%. For O=C(O)C(F)(F)F.O=C(O)C(F)(F)F.[H][C@@]12CN(Cc3cnn(C)c3)C[C@]1([H])OCCN2Cc1c(C)noc1C the result was Mtb cholesterol medium: -29.46%; Mtb glucose medium: -22.4%. With NC(=O)CC1CCN(C(=O)c2cccn2Cc2cccs2)CC1 the screen gave Mtb cholesterol medium: -9.479%; Mtb glucose medium: 14.21%. COCCNC(=O)[C@H]1CN2CCC1C[C@@H]2Cn1cc(C(C)(C)C)nn1 (stereo not given in full) read Mtb cholesterol medium: -3.1%; Mtb glucose medium: -2.055% and 26.58%. CCOCC1CN(C(=O)c2cnoc2C)Cc2cn(C)nc21.O=C(O)C(F)(F)F (stereo not given) read Mtb cholesterol medium: 8.819%; Mtb glucose medium: -3.085% and -41.09%. Result for O=C(O)C(F)(F)F.O=C(O)C(F)(F)F.[H][C@@]12CN(Cc3ccoc3)CCC[C@]1(C(=O)O)CN(CCOC)C2 was Mtb cholesterol medium: -18.27%; Mtb glucose medium: -25.73% and 2.315%. For CC(O)(CN1CCC2(CC1)OCCO2)c1cccc(C(F)(F)F)c1 (stereo not given) the result was Mtb cholesterol medium: -0.2107%; Mtb glucose medium: 24.88%.

COc1ccc(CN2CCOC3(CCCN(c4cnccn4)C3)C2)cc1.O=C(O)C(F)(F)F.O=C(O)C(F)(F)F (stereo not given) gave Mtb cholesterol medium: -19.4%; Mtb glucose medium: -25.62%. CCOCCCNC(=O)c1cc(C(C)C)nc(N2CCCCCC2)n1 gave Mtb cholesterol medium: -41.93%; Mtb glucose medium: -37.47%. Cc1cc(S(=O)(=O)N(CCO)C2CC2)ccc1F gave Mtb cholesterol medium: 6.884%; Mtb glucose medium: -9.066%. With COCc1cccc(CNC(=O)CNc2ccccc2C(C)=O)c1 the screen gave Mtb cholesterol medium: -11.25%; Mtb glucose medium: 8.745%. CN(CC(C)(C)C)S(=O)(=O)c1ccc(C(F)(F)F)nc1 read Mtb cholesterol medium: 27.94%; Mtb glucose medium: -0.006743%. With COc1c(C2CCCN2Cc2cccc(C(N)=O)c2)c(C)nn1C (stereo not given) the screen gave Mtb cholesterol medium: -10.26%; Mtb glucose medium: -33.69%. For CC(C)(C)C(=O)NCCNCc1ccc(Cl)c2cccnc12 the result was Mtb cholesterol medium: -10.29%; Mtb glucose medium: 13.51%. With CN(C)CCn1c([C@@H]2CCCO2)cc2cccnc21.Cl the screen gave Mtb cholesterol medium: -0.4308%; Mtb glucose medium: -8.744%.

Result for Cc1ccc(OCC2CCCN(C(=O)c3csc(CN(C)C)n3)C2)cc1 (stereo not given) was Mtb cholesterol medium: -12.98%; Mtb glucose medium: 16.22%. Result for O=C(O)c1ccc2ccc(N3CCN(CC4CC4)CC3)n2c1 was Mtb cholesterol medium: 10.94%; Mtb glucose medium: 21.29%. CC(C)n1ccc(C(=O)N2CCCC(n3cncn3)C2)n1 (stereo not given) gave Mtb cholesterol medium: 12.17%; Mtb glucose medium: 12.84%. For CN1CC(=O)N(c2ccsc2)CC12CCN(C(=O)N1CCCC1)C2.O=C(O)C(F)(F)F (stereo not given) the result was Mtb cholesterol medium: -14.6%; Mtb glucose medium: 8.943%. Result for NC(=O)c1cnc(NC2CCN(C(=O)C3CC3)CC2)c(Cl)c1 was Mtb cholesterol medium: -7.622%; Mtb glucose medium: 3.729%. For O=C(NCC1(O)CCOC1)NCC1(c2ccccc2Cl)CC1 (stereo not given) the result was Mtb cholesterol medium: 13.43%; Mtb glucose medium: 25.17%. Cc1cnn(CCC(=O)N2CCC3(CCC(=O)N(CC4CC4)C3)CC2)c1 read Mtb cholesterol medium: 4.395% and -7.651%; Mtb glucose medium: 7.027%. With Cc1cc(CN2CCN(C(=O)NCc3csc(C)n3)CC2)no1 the screen gave Mtb cholesterol medium: -21.88%; Mtb glucose medium: -14.58%.

For Cl.Cl.O[C@@H]1C[C@@](CNCc2cccc(Cl)c2)(COc2cnccn2)C[C@@H]1O the result was Mtb cholesterol medium: -13.98%; Mtb glucose medium: -15.11% and 3.156%. CCCc1cc(NC2CCc3nc(C)nn3C2)n2ncnc2n1 (stereo not given) gave Mtb cholesterol medium: -17.3%; Mtb glucose medium: -15.92%.

The first 4 entries again:

* CC(C)(C)c1nnc(CN2CCn3c(nnc3C3CC3)C2)o1 : Mtb cholesterol medium: 3.723%; Mtb glucose medium: -23.08%
* CC(C)NC(=O)N[C@H]1C[C@@H](Cc2cc(CN3CCOCC3)on2)C1(C)C : Mtb cholesterol medium: 7.743%; Mtb glucose medium: -1.194% and -10.42%
* c1cc(-c2noc(-c3cc(C4CC4)on3)n2)cc(N2CCCCC2)n1 : Mtb cholesterol medium: 18.3%; Mtb glucose medium: 28.08%
* Cc1cccc(CN2CCc3ncnc(N4CCCC4)c3CC2)n1.O=C(O)C(F)(F)F : Mtb cholesterol medium: 6.147%; Mtb glucose medium: -6.231%

From ChEMBL document CHEMBL3988442, “University of Dundee, Small-Polar-MMV Screening Library” (2021).